Cleaved PARP in drug-treated melanoma cells

Source: doi:10.1371/journal.pone.0140310, primary screening data, rounded.

Drug key:
nutlin-3: COc1ccc(C2=N[C@@H](c3ccc(Cl)cc3)[C@@H](c3ccc(Cl)cc3)N2C(=O)N2CCNC(=O)C2)c(OC(C)C)c1 at 0.5 µM
palbociclib: CC(=O)c1c(C)c2cnc(Nc3ccc(N4CCNCC4)cn3)nc2n(C2CCCC2)c1=O at 0.2 µM
CHIR-265: Cn1c(Nc2ccc(C(F)(F)F)cc2)nc2cc(Oc3ccnc(-c4ncc(C(F)(F)F)[nH]4)c3)ccc21 at 0.4 µM
bortezomib: CC(C)C[C@H](NC(=O)[C@H](Cc1ccccc1)NC(=O)c1cnccn1)B(O)O at 0.005 µM
dorsomorphin: c1cc(-c2cnn3cc(-c4ccc(OCCN5CCCCC5)cc4)cnc23)ccn1 at 2 µM
PF-04217903: OCCn1cc(-c2cnc3nnn(Cc4ccc5ncccc5c4)c3n2)cn1 at 5 µM
vatalanib: Clc1ccc(Nc2nnc(Cc3ccncc3)c3ccccc23)cc1 at 10 µM
dovitinib: CN1CCN(c2ccc3nc(-c4c(N)c5c(F)cccc5[nH]c4=O)[nH]c3c2)CC1 at 0.5 µM
tanespimycin: C=CCNC1=C2C[C@@H](C)C[C@H](OC)[C@H](O)[C@@H](C)/C=C(\C)[C@H](OC(N)=O)[C@@H](OC)/C=C\C=C(/C)C(=O)NC(=CC1=O)C2=O at 0.01 µM
CP-690550: C[C@@H]1CCN(C(=O)CC#N)C[C@@H]1N(C)c1ncnc2[nH]ccc12 at 5 µM

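Human melanoma cell lines in 1,536-well plates were treated with a pair of drugs for 72 h, then fixed, stained and imaged. Each value is the cleaved-PARP-positive fraction of nuclei relative to DMSO-treated wells, in %, so that 100 equals the control and higher values mean more apoptosis. Every drug was used at one fixed concentration, the higher of two screened. No replicate spread is given; individual values may be noisy. The marker varies much from line to line, for technical or biological reasons.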
Only some of the drugs and lines screened are listed, without regard to their results.

Combination	SK-MEL-30
CHIR-265 + dorsomorphin	194
PF-04217903 + CHIR-265	102
dorsomorphin + CP-690550	128
nutlin-3 + CP-690550	63.4
PF-04217903 + dovitinib	112
tanespimycin + CHIR-265	50.4
bortezomib + dorsomorphin	639
dorsomorphin + dovitinib	82.0
CP-690550 + dovitinib	50.2
dorsomorphin + palbociclib	84.6
CHIR-265 + bortezomib	1150
tanespimycin + CP-690550	84.3
CHIR-265 + vatalanib	189
CHIR-265 + CP-690550	134
dovitinib + nutlin-3	118
CHIR-265 + dovitinib	104
tanespimycin + PF-04217903	84.6
PF-04217903 + nutlin-3	116
PF-04217903 + palbociclib	114
vatalanib + PF-04217903	55.3
nutlin-3 + CHIR-265	183
bortezomib + dovitinib	1260
PF-04217903 + CP-690550	75.2
palbociclib + nutlin-3	154
tanespimycin + vatalanib	108
palbociclib + CHIR-265	215
vatalanib + palbociclib	100
vatalanib + dorsomorphin	170
palbociclib + dovitinib	34.7
CP-690550 + palbociclib	56.9
bortezomib + vatalanib	1010
tanespimycin + dorsomorphin	129
nutlin-3 + bortezomib	579
nutlin-3 + tanespimycin	151
dovitinib + vatalanib	64.5
bortezomib + tanespimycin	1010
palbociclib + tanespimycin	92.6
dorsomorphin + PF-04217903	75.6
nutlin-3 + vatalanib	167
bortezomib + CP-690550	731

Once more, the final 4:

- palbociclib + tanespimycin : SK-MEL-30: 92.6
- dorsomorphin + PF-04217903 : SK-MEL-30: 75.6
- nutlin-3 + vatalanib : SK-MEL-30: 167
- bortezomib + CP-690550 : SK-MEL-30: 731